# Cleaved PARP after 72 h of treatment

Source: doi:10.1371/journal.pone.0140310, primary screening data, rounded.

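Human melanoma cell lines in 1,536-well plates were treated with a pair of drugs for 72 h, then fixed, stained and imaged. Values are the share of nuclei positive for cleaved PARP as a percentage of the same share in the DMSO control: 100 is the control level, higher means more apoptosis. Concentrations were fixed for each drug; these are the higher of two levels. These are primary screening values without error estimates. The marker varies much from line to line, for technical or biological reasons.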 Only some of the drugs and lines screened are listed, without regard to their results. A dash means that no value is listed here.

Drug key:
LFM-A13: C/C(O)=C(\C#N)C(=O)Nc1cc(Br)ccc1Br at 10000 nM
GSK0660: COC(=O)c1sccc1S(=O)(=O)Nc1ccc(Nc2ccccc2)cc1OC at 5000 nM
GW0742: Cc1cc(SCc2sc(-c3ccc(C(F)(F)F)c(F)c3)nc2C)ccc1OCC(=O)O at 10000 nM
vismodegib: CS(=O)(=O)c1ccc(C(=O)Nc2ccc(Cl)c(-c3ccccn3)c2)c(Cl)c1 at 5000 nM
tamatinib: COc1cc(Nc2ncc(F)c(Nc3ccc4c(n3)NC(=O)C(C)(C)O4)n2)cc(OC)c1OC at 2000 nM
MK-1775: C=CCn1c(=O)c2cnc(Nc3ccc(N4CCN(C)CC4)cc3)nc2n1-c1cccc(C(C)(C)O)n1 at 100 nM
GW9662: O=C(Nc1ccccc1)c1cc([N+](=O)[O-])ccc1Cl at 10000 nM
STA-4783: CN(NC(=O)CC(=O)NN(C)C(=S)c1ccccc1)C(=S)c1ccccc1 at 30 nM
L-779450: Oc1cc(-c2nc(-c3ccccc3)[nH]c2-c2ccncc2)ccc1Cl at 1000 nM
OSI-906: C[C@]1(O)C[C@@H](c2nc(-c3ccc4ccc(-c5ccccc5)nc4c3)c3c(N)nccn32)C1 at 2000 nM
erlotinib: C#Cc1cccc(Nc2ncnc3cc(OCCOC)c(OCCOC)cc23)c1 at 4000 nM
fingolimod: CCCCCCCCc1ccc(CCC(N)(CO)CO)cc1 at 10000 nM
KU-55933: O=c1cc(-c2cccc3c2Sc2ccccc2S3)oc(N2CCOCC2)c1 at 5000 nM
cediranib: COc1cc2c(Oc3ccc4[nH]c(C)cc4c3F)ncnc2cc1OCCCN1CCCC1 at 2000 nM
palbociclib: CC(=O)c1c(C)c2cnc(Nc3ccc(N4CCNCC4)cn3)nc2n(C2CCCC2)c1=O at 200 nM
ABT-263: CC1(C)CCC(c2ccc(Cl)cc2)=C(CN2CCN(c3ccc(C(=O)NS(=O)(=O)c4ccc(N[C@H](CCN5CCOCC5)CSc5ccccc5)c(S(=O)(=O)C(F)(F)F)c4)cc3)CC2)C1 at 2000 nM
everolimus: CO[C@H]1C[C@@H]2CC[C@@H](C)[C@@](O)(O2)C(=O)C(=O)N2CCCC[C@H]2C(=O)O[C@H]([C@H](C)C[C@@H]2CC[C@@H](OCCO)[C@H](OC)C2)CC(=O)[C@H](C)/C=C(\C)[C@@H](O)[C@@H](OC)C(=O)[C@H](C)C[C@H](C)/C=C/C=C/C=C/1C at 100 nM
pazopanib: Cc1ccc(Nc2nccc(N(C)c3ccc4c(C)n(C)nc4c3)n2)cc1S(N)(=O)=O at 2000 nM
T0901317: O=S(=O)(c1ccccc1)N(CC(F)(F)F)c1ccc(C(O)(C(F)(F)F)C(F)(F)F)cc1 at 7000 nM
PD173074: CCN(CC)CCCCNc1ncc2cc(-c3cc(OC)cc(OC)c3)c(NC(=O)NC(C)(C)C)nc2n1 at 500 nM

| # | Pair | SK-MEL-5 | SK-MEL-30 | A375 | MEL-HO | A2058 | 501mel |
|---|---|---|---|---|---|---|---|
| 1 | LFM-A13 and GW0742 | 154 | 63.2 | 53.6 | 93.8 | 144 | 123 |
| 2 | cediranib and GW0742 | 112 | 118 | 29.3 | 135 | 119 | 59.7 |
| 3 | STA-4783 and OSI-906 | 135 | 53.8 | - | 42.3 | 3420 | - |
| 4 | LFM-A13 and ABT-263 | 188 | 458 | 415 | 128 | 122 | 104 |
| 5 | vismodegib and KU-55933 | 129 | 46.0 | 31.7 | 90.8 | 75.4 | 49.2 |
| 6 | palbociclib and MK-1775 | 161 | 300 | - | 182 | 103 | - |
| 7 | everolimus and OSI-906 | 1490 | 241 | 99.2 | 83.3 | 254 | - |
| 8 | ABT-263 and erlotinib | 452 | 482 | 321 | 89.3 | 314 | - |
| 9 | T0901317 and PD173074 | 147 | 87.1 | 43.1 | 95.7 | 67.9 | 143 |
| 10 | erlotinib and L-779450 | 733 | 49.3 | 180 | 81.0 | 306 | 71.0 |
| 11 | KU-55933 and GSK0660 | 79.1 | 57.0 | 25.5 | 115 | 95.0 | 42.0 |
| 12 | MK-1775 and GW9662 | 439 | 172 | 149 | 58.0 | 155 | 200 |
| 13 | palbociclib and T0901317 | 52.4 | 91.5 | 96.7 | 183 | 86.0 | - |
| 14 | cediranib and LFM-A13 | 715 | 134 | 82.4 | 55.3 | 52.3 | 205 |
| 15 | fingolimod and palbociclib | 312 | 1020 | 187 | 334 | 272 | - |
| 16 | tamatinib and GW0742 | 268 | 55.3 | 31.4 | 117 | 182 | 86.6 |
| 17 | STA-4783 and GSK0660 | 242 | 61.2 | 152 | 70.3 | 1700 | 345 |
| 18 | OSI-906 and palbociclib | 196 | 14.8 | 14.9 | 208 | 48.4 | - |
| 19 | erlotinib and vismodegib | 399 | 130 | 66.0 | 134 | 188 | - |
| 20 | pazopanib and T0901317 | 94.0 | 86.9 | 47.1 | 41.7 | 90.7 | 135 |
| 21 | pazopanib and GW0742 | 62.0 | 55.5 | 123 | 46.5 | 69.6 | 110 |
| 22 | tamatinib and erlotinib | 106 | 29.9 | - | 84.5 | 169 | - |
| 23 | fingolimod and L-779450 | 305 | 524 | 243 | 1230 | 2580 | 8330 |
| 24 | L-779450 and PD173074 | 149 | 37.3 | 647 | 117 | 178 | - |
| 25 | ABT-263 and KU-55933 | 222 | 163 | 698 | 71.9 | 214 | 94.5 |

Some entries from above, unchanged:

| Pair | SK-MEL-5 | SK-MEL-30 | A375 | MEL-HO | A2058 | 501mel |
|---|---|---|---|---|---|---|
| tamatinib and erlotinib | 106 | 29.9 | - | 84.5 | 169 | - |
| fingolimod and palbociclib | 312 | 1020 | 187 | 334 | 272 | - |